According to publication PMC8424372 (Journal of Pharmaceutical Analysis, 2020):

Tests used:
[1] = assay type: in vivo, human
[2] = Freeze-thaw stability in human plasma; assay type: in vitro ADME; details: −80 °C/25 °C, mean ± SD, n = 5, %

With `C=C1CCC[C@]2(C)C=C3OC(=O)C(C)=C3C[C@@H]12` [Atractylenolide I, atractylenolide I] the “Shape of plasma concentration-time profile” value ([1]; after oral Gumiganghwal-tang tablets (9.6 g), humans) was “double peaks”, the AUC(0-inf) ([1]; male, human, plasma, po, 9.6 g) was 33.4 ± 8.81 ng·h/mL and the Cmax ([1]; male, human, plasma, po, 9.6 g) was 3.26 ± 0.94 ng/mL. For the same compound, the Tmax ([1]; male, human, plasma, po, 9.6 g) was 6.21 ± 1.02 h, the Vd/F ([1]; male, human, plasma, po, 9.6 g) was 33.3 ± 7.15 L and the half-life ([1]; male, human, plasma, po, 9.6 g) was 22.1 ± 3.24 h. The “Freeze-thaw stability (3 cycles)” value ([2]; spiked conc. 2 ng/mL) was 97.53 ± 3.94% and the “Freeze-thaw stability (3 cycles)” value ([2]; spiked conc. 400 ng/mL) was 99.32 ± 2.38%.
